Results are given in words; binding and its absence hold for the method and conditions named. Some binding calls cover weakened binding; strength is not graded here.
Target: His-tagged human LILRB4 (human) (UniProt Q8NHJ6)
Test: BLI (BLItz), His-tagged human LILRB4 on Ni-NTA sensor

Chains of the proteins cited; added tags and fusions are not shown. Residues count along the entry.
UniProt Q8NHJ6, residues 22-259: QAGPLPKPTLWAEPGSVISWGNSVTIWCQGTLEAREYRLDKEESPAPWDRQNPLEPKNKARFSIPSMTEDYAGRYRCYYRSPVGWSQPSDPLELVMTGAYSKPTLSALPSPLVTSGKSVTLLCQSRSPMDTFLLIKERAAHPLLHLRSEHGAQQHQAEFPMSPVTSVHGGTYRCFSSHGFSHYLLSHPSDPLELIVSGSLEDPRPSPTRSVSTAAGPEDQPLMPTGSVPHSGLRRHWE
UniProt P02751, residues 32-608: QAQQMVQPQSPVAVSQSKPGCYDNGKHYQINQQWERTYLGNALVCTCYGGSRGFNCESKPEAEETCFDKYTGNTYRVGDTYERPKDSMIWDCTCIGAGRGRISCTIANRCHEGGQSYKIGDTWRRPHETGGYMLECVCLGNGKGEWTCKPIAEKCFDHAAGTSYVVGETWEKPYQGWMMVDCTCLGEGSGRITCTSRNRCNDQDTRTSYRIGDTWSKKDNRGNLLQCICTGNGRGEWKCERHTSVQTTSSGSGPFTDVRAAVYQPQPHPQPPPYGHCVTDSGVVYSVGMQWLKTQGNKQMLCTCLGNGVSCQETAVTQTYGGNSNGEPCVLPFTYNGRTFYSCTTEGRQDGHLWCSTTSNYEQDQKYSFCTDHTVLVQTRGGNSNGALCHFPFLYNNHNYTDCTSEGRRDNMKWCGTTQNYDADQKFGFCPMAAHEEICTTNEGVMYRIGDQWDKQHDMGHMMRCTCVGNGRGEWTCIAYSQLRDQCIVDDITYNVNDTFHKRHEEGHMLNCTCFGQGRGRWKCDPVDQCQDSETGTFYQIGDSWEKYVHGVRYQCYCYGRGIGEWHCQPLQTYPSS

binding: binds
Substance: N-terminal cathepsin D digested fragment 70 kDa polypeptide of human fibronectin (from UniProt P02751 32-608) (ligand)
